No constants are given. Whether binding was seen depends on the method and setting. In cells and extracts the contact can be indirect. These calls come from enrichment with a bait or labelling near it, and not all partners need be listed.
Target: EHMT1, endogenous in 293 cells (human (endogenous in HEK293)) (UniProt Q9H9B1)
Test: affinity purification with mass spectrometry; immunoprecipitation of endogenous EHMT1, excision of unique bands, LC/MS

Chains of the proteins cited; added tags and fusions are not shown.
UniProt Q9H9B1: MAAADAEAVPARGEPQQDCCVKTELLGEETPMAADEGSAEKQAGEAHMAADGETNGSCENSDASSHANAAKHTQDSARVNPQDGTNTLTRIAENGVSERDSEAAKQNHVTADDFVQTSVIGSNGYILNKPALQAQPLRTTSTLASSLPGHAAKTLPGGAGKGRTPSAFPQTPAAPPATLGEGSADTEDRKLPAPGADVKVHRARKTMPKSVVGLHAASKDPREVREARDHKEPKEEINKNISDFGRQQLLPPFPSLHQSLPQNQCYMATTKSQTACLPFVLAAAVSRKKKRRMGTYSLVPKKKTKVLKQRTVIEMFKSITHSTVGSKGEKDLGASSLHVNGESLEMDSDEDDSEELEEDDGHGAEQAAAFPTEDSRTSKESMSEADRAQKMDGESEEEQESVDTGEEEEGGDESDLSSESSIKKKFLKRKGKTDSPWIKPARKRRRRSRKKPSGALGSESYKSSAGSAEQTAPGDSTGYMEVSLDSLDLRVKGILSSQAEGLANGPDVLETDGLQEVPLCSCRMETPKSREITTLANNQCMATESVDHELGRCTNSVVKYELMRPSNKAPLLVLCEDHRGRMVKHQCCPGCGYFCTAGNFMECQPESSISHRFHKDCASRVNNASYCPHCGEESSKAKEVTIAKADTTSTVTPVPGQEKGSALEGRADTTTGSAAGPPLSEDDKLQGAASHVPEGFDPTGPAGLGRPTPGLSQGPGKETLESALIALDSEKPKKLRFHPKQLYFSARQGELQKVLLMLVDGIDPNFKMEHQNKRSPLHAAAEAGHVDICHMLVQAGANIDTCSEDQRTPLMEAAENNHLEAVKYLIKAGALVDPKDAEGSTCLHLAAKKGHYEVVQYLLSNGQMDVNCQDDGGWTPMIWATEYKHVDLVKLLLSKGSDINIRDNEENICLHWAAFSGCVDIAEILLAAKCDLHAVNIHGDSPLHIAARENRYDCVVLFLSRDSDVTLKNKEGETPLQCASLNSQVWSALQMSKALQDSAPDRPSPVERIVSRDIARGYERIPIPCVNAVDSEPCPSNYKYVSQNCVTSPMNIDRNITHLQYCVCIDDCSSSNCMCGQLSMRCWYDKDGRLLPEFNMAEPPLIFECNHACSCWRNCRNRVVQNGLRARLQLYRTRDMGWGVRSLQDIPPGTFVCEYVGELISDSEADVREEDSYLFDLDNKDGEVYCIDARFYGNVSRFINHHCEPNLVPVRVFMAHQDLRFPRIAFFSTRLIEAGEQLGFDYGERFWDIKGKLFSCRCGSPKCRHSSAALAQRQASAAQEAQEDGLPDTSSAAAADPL
UniProt P20700: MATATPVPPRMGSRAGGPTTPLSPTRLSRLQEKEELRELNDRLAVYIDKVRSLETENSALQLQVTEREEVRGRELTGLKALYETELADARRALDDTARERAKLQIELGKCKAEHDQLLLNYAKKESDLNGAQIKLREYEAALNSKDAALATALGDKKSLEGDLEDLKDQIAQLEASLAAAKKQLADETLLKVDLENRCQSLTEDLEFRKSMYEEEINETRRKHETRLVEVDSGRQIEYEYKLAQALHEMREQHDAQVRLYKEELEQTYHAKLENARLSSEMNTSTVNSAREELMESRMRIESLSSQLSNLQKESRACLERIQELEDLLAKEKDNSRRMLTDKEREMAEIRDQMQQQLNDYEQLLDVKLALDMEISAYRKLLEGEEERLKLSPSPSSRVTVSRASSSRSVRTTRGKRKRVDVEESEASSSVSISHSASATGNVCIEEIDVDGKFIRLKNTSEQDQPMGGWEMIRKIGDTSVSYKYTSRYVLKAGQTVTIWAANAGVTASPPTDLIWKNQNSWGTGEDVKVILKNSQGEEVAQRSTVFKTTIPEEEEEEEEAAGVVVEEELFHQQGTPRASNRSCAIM

Substance: LMNB1 (from UniProt P20700 1-586)
- binding: binds
